The other results are listed elsewhere or left out.
Tests used:
Assay in all cases: log2 fold change, soluble protein after heating vs DMSO (PISA); higher = thermal stabilisation; K562 cells, 10 uM, 30 min; active = over 0.2 and 3.5 SD of the protein, either way, in both replicates (recomputed)
[1] = compound: CC[C@@H]1C(=O)N(C)c2cnc(Nc3ccc(C(=O)NC4CCN(C)CC4)cc3OC)nc2N1C1CCCC1
Procedure, shortened: (§1)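 Thermal stability values are relative to control samples and come from duplicates. They are expressed as log2 fold changes. For measurement, K562 cells (2×10^6 cells/mL) received 10 μM compound for 30 min, and aliquots were heated for 3 min over 48°C-58°C, pooled, and extracted at 4°C in PBS with 0.5% NP-40. Soluble protein, the supernatant after 21,000xg for 90 min, was quantified by TMTpro 16plex LC-MS/MS with equalised channel sums.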

Amino acid sequences for entries named in this document (tags omitted). A change or cut given only in a name is not applied to a line headed by its entry.
UniProt Q9Y295: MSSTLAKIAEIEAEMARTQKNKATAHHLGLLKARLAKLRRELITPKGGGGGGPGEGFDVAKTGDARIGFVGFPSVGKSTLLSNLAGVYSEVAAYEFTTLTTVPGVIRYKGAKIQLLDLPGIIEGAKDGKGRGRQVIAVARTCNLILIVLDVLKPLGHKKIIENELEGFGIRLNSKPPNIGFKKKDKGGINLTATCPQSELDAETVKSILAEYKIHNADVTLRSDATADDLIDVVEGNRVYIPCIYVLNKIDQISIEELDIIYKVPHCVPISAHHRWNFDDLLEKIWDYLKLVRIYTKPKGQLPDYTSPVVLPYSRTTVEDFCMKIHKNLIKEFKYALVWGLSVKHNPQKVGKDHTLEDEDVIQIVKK
UniProt Q9UNI6, whole entry, looked up: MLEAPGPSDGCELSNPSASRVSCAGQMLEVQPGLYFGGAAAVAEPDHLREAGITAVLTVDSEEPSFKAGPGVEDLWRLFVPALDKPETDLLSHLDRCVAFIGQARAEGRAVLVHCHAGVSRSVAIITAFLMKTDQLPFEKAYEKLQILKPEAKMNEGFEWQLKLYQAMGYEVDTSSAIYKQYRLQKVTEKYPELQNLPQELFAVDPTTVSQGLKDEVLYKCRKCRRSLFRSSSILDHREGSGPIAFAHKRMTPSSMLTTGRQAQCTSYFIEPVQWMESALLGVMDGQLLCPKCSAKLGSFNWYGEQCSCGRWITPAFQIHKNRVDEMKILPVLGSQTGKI
UniProt Q99543: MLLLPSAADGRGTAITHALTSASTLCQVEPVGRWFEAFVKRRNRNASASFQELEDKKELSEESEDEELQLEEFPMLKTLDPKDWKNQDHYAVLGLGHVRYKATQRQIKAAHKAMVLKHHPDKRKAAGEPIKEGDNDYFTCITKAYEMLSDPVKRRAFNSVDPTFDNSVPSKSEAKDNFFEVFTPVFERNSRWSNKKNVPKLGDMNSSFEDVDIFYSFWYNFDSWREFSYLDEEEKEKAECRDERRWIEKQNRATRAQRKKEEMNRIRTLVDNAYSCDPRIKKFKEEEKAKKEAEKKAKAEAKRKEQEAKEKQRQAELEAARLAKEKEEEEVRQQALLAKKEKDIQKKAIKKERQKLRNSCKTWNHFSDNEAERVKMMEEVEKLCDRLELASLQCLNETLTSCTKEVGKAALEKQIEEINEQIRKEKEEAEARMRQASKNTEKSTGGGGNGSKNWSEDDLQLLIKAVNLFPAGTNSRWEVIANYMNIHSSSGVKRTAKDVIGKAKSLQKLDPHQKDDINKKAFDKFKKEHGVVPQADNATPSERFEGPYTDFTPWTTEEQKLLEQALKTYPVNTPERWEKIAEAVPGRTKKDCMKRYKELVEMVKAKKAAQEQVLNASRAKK
UniProt Q96FX2: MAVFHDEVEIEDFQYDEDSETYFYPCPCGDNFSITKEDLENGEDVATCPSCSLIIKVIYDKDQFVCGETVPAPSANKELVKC
UniProt Q9BZG8: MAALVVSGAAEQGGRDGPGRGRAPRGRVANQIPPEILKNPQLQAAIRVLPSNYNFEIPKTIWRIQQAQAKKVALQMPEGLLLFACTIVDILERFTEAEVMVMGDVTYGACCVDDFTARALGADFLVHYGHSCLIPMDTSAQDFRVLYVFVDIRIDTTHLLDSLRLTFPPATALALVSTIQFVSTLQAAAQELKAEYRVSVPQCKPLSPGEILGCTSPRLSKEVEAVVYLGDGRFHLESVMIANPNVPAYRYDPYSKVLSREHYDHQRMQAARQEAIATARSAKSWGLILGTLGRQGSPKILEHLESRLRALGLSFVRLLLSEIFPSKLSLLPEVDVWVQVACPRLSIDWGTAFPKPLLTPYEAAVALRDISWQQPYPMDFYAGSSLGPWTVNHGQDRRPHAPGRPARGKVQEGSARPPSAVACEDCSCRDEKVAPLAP
UniProt Q9C005, whole entry, looked up: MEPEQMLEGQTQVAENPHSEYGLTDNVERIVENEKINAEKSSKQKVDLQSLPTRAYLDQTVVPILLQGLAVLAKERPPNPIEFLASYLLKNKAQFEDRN
UniProt Q9NZJ0: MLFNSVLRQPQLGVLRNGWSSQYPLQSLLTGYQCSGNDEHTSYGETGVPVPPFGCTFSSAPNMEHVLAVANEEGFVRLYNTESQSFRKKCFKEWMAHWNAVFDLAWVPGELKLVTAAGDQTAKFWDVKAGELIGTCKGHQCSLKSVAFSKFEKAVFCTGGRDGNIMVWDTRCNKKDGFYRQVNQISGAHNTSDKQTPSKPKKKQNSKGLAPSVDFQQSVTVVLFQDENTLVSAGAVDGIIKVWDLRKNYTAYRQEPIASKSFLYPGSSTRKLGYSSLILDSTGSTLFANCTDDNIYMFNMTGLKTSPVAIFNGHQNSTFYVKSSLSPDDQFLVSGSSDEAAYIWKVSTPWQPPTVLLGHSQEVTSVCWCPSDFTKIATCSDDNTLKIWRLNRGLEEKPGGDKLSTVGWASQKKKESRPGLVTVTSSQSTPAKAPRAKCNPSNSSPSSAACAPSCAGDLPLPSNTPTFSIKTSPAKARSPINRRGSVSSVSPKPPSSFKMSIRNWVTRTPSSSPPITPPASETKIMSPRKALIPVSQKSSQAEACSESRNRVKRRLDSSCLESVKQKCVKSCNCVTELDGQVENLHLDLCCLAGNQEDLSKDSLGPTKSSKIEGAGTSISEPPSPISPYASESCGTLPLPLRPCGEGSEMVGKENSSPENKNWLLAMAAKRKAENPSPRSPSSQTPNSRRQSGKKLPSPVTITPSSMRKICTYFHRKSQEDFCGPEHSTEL
UniProt Q8WXX5: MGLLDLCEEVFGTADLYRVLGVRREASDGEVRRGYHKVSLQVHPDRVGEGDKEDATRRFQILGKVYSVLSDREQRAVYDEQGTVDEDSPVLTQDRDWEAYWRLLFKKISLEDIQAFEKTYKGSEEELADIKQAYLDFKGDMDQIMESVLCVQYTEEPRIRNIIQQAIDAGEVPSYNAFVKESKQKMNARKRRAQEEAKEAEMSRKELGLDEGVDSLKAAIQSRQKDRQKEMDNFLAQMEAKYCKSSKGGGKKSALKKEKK
UniProt Q9H3Z4: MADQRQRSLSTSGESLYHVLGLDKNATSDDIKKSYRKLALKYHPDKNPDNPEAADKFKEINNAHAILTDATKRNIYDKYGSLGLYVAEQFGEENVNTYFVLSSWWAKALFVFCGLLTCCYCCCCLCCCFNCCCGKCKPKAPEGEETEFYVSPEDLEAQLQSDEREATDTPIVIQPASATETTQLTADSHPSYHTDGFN
UniProt Q9H3H5: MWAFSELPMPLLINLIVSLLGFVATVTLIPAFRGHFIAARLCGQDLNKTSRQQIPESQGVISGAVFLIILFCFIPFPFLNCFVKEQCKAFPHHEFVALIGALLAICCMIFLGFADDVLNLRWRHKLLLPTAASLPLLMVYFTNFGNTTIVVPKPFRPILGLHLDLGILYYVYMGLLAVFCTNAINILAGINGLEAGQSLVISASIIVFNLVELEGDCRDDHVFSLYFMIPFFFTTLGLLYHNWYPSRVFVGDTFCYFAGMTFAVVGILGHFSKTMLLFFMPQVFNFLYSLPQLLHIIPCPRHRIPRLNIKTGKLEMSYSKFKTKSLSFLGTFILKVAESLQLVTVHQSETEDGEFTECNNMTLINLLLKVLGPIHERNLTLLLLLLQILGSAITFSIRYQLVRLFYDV
UniProt Q01658: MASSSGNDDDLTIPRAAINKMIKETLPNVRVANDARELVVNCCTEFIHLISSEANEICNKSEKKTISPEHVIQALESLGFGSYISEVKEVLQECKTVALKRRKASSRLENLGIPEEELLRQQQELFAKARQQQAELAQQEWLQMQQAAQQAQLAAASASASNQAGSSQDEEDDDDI
UniProt Q8TEA8: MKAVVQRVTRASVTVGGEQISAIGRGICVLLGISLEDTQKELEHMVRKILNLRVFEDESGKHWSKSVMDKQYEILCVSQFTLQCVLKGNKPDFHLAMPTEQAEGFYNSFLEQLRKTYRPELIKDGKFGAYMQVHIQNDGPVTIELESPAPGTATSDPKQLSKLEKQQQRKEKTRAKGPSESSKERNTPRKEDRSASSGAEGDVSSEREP
UniProt Q96N67: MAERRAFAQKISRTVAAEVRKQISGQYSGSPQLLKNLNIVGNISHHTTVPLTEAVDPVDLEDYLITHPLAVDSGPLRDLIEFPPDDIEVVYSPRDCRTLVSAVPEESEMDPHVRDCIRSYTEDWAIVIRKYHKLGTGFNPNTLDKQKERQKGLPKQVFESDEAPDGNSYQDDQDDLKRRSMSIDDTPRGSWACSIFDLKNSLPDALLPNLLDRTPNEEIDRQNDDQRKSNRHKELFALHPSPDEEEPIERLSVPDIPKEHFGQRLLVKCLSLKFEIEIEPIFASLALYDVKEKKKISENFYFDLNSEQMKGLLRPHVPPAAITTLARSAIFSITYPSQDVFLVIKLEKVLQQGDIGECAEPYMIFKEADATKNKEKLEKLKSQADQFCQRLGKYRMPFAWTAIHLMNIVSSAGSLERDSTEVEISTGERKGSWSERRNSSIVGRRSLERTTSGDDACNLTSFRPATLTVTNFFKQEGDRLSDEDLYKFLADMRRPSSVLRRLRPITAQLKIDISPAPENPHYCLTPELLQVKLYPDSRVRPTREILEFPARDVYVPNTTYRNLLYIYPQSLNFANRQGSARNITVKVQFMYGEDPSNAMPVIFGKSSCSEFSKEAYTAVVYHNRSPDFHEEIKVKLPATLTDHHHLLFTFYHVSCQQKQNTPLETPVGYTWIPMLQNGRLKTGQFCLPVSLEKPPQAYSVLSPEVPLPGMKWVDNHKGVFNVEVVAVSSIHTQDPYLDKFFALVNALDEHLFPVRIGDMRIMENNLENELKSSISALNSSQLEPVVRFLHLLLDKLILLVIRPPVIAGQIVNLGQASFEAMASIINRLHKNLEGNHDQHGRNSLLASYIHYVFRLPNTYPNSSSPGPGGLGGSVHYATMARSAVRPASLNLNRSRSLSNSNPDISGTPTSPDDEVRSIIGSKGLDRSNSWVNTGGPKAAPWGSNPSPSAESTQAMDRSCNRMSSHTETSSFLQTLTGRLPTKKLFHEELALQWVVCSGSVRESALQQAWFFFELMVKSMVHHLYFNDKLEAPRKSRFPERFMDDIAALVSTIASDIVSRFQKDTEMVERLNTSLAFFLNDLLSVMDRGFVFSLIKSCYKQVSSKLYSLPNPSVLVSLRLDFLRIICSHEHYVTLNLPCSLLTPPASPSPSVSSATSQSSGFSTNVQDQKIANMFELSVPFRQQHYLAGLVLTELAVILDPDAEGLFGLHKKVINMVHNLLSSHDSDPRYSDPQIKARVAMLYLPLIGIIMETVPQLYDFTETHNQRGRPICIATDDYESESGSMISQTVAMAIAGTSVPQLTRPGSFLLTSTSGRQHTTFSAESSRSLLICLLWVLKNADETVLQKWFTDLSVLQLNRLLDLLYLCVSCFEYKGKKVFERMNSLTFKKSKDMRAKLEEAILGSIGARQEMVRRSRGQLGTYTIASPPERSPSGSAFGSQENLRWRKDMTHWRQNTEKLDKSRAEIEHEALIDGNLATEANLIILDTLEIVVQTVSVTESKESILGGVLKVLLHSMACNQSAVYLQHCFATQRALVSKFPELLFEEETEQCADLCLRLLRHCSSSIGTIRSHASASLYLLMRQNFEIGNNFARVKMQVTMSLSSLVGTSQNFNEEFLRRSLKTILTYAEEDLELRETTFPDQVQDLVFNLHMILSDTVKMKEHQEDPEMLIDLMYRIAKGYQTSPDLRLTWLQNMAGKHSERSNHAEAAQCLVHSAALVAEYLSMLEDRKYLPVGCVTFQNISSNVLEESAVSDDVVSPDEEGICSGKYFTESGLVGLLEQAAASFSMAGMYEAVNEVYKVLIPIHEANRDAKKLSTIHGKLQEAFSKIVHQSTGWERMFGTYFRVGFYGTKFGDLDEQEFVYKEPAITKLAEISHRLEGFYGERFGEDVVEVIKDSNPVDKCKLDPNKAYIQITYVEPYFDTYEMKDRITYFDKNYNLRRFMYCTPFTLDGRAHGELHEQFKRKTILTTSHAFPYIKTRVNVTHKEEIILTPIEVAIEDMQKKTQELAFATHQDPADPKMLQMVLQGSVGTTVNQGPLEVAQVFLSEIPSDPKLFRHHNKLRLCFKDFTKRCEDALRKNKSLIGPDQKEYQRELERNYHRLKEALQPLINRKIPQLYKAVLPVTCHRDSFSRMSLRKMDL
UniProt Q9BTV6: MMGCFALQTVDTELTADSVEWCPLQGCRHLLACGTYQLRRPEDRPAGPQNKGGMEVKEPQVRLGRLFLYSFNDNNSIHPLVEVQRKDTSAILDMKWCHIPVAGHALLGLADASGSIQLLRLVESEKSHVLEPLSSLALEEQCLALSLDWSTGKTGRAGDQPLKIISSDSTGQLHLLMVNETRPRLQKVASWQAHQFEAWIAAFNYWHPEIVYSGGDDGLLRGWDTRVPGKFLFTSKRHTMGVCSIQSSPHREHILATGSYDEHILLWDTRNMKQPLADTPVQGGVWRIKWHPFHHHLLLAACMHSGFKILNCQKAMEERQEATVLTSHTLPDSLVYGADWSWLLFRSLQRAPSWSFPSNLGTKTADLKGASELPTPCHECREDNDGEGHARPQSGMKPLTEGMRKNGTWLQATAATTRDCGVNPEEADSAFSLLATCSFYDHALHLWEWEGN

volasertib = compound: CC[C@@H]1C(=O)N(C)c2cnc(Nc3ccc(C(=O)N[C@H]4CC[C@H](N5CCN(CC6CC6)CC5)CC4)cc3OC)nc2N1C(C)C [volasertib]
Procedure, shortened: as §1

[2] = compound: CC[C@H](C)N1C=C(C2=C(C=C(C=C21)C3=CN=C(C=C3)N4CCNCC4)C(=O)NCC5=C(C=C(NC5=O)C)C)C
Procedure, shortened: as §1

epoxomicin = compound: CC[C@H](C)[C@@H](C(=O)N[C@@H]([C@@H](C)O)C(=O)N[C@@H](CC(C)C)C(=O)[C@]1(CO1)C)NC(=O)[C@H]([C@@H](C)CC)N(C)C(=O)C [epoxomicin]
Procedure, shortened: as §1

[3] = compound: CCn1c(C(=O)N(C2CC2)C2CC2)cc2c3c(ncn3C)c(Nc3cc(C)n(C)n3)nc21
Procedure, shortened: as §1

[4] = compound: CCn1cc(-c2ccnc3[nH]c(-c4cccc(CN(C)C)c4)cc23)c(-c2ccc(NC(=O)N(C)C)cc2)n1
Procedure, shortened: as §1

[5] = compound: CN(C)CC(=O)Nc1ccc2[nH]c(=O)c3ccccc3c2c1
Procedure, shortened: as §1

rosiglitazone = compound: CN(CCOC1=CC=C(C=C1)C[C@H]2C(=O)NC(=O)S2)C3=CC=CC=N3 (racemic) [rosiglitazone]
Procedure, shortened: as §1

[6] = compound: CN1C2=C(C3=C1C(=O)N(N=C3)CC4=CC(=CC=C4)N)SC(=C2)S(=O)C
Procedure, shortened: as §1

[7] = compound: CN1CCC(CNc2ccc3ncc(-c4cccc(OC(F)(F)F)c4)n3n2)CC1
Procedure, shortened: as §1

Measured: log2 fold change

DNAJC13 (UniProt O75165)
inactive: [1] -0.07 | volasertib -0.322 | [2] 0.029 | epoxomicin -0.026 | [3] -0.039 | [4] 0.033 | [5] 0.004 | rosiglitazone 0.028 | [6] 0.076 | [7] -0.084

DRG1 (UniProt Q9Y295)
inactive: [1] 0.083 | volasertib 0.118 | [2] -0.006 | epoxomicin -0.036 | [3] 0.011 | [4] 0.011 | [5] -0.032 | rosiglitazone -0.026 | [6] 0.046 | [7] 0.093

DNAJB6 (UniProt O75190)
inactive: [1] 0.054 | volasertib -0.054 | [2] 0.023 | epoxomicin -0.014 | [3] -0.01 | [4] -0.011 | [5] -0.006 | rosiglitazone -0.014 | [6] 0.004 | [7] -0.042

DUSP12 (UniProt Q9UNI6)
inactive: [1] -0.065 | volasertib -0.162 | [2] 0.007 | epoxomicin 0.019 | [3] 0 | [4] -0.07 | [5] -0.009 | rosiglitazone 0.024 | [6] -0.059 | [7] -0.106

DOCK9 isoform 4 (UniProt Q9BZ29)
inactive: [1] -0.039 | volasertib -0.063 | [2] 0.027 | epoxomicin 0.045 | [3] 0.004 | [4] -0.12 | [5] -0.006 | rosiglitazone 0.121 | [6] 0.145 | [7] -0.07

DOCK11, A0A0J9YW64
inactive: [1] -0.257

DNAJC2 (UniProt Q99543)
inactive: [1] 0.036 | volasertib -0.25 | [2] 0.138 | epoxomicin 0.022 | [3] -0.118 | [4] 0.014 | [5] 0.067 | rosiglitazone 0.114 | [6] 0.119 | [7] -0.125

ECHDC1 (UniProt Q9NTX5)
inactive: [1] 0.048 | volasertib 0.081 | [2] -0.031 | epoxomicin -0.018 | [3] 0.012 | [4] 0.048 | [5] -0.028 | rosiglitazone -0.003 | [6] -0.028 | [7] 0.003

DPH3 (UniProt Q96FX2)
inactive: [1] 0.013 | volasertib 0.17 | [2] -0.007 | epoxomicin 0.11 | [3] 0.021 | [4] 0.25 | [5] -0.006 | rosiglitazone 0.056 | [6] -0.139 | [7] 0.093

DPH1 (UniProt Q9BZG8)
inactive: [1] 0.032 | volasertib -0.053 | [2] 0.051 | epoxomicin 0.05 | [3] 0.02 | [4] 0 | [5] 0.047 | rosiglitazone 0.037 | [6] 0.002 | [7] -0.102

DPY30 (UniProt Q9C005)
inactive: [1] -0.032 | volasertib -0.03 | [2] 0.022 | epoxomicin 0.643 | [3] -0.023 | [4] 0.125 | [5] 0.129 | rosiglitazone -0.161 | [6] 0.087 | [7] 0.228

DTL (UniProt Q9NZJ0)
inactive: [1] -0.096 | volasertib -0.033 | [2] 0.049 | epoxomicin -0.024 | [3] 0.026 | [4] -0.029 | [5] 0.038 | rosiglitazone -0.012 | [6] -0.105 | [7] 0.062

EAF1 (UniProt Q96JC9)
inactive: [1] 0.084 | volasertib 0.126 | [2] -0.107 | epoxomicin 0.008 | [3] -0.03 | [4] 0.266 | [5] -0.008 | rosiglitazone -0.028 | [6] 0.018 | [7] -0.079

DNAJC9 (UniProt Q8WXX5)
inactive: [1] -0.069 | volasertib -0.17 | [2] 0.055 | epoxomicin 0.035 | [3] -0.005 | [4] 0.043 | [5] 0.01 | rosiglitazone 0.013 | [6] -0.053 | [7] -0.065

DST (UniProt Q03001)
inactive: [1] 0.046 | volasertib 0.166 | [2] -0.179 | epoxomicin -0.222 | [3] -0.063 | [4] -0.034 | [5] -0.054 | rosiglitazone 0.055 | [6] 0.063 | [7] -0.085

DNAJC5 (UniProt Q9H3Z4)
inactive: [1] 0.063 | volasertib 0.132 | [2] -0.054 | epoxomicin -0.04 | [3] 0 | [4] 0.029 | [5] -0.032 | rosiglitazone -0.014 | [6] -0.088 | [7] 0.172

EBAG9 isoform 2 (UniProt O00559)
inactive: [1] -0.057 | volasertib -0.075 | [2] -0.096 | epoxomicin -0.017 | [3] -0.032 | [4] -0.039 | [5] -0.016 | rosiglitazone -0.039 | [6] 0.238 | [7] -0.056

DPAGT1 (UniProt Q9H3H5)
inactive: [1] -0.047 | volasertib -0.016 | [2] -0.027 | epoxomicin 0.116 | [3] 0.062 | [4] -0.031 | [5] 0.138 | rosiglitazone 0.032 | [6] -0.156 | [7] -0.153

DYNC1H1 (UniProt Q14204)
inactive: [1] 0.011 | volasertib -0.009 | [2] 0.045 | epoxomicin 0.014 | [3] 0.008 | [4] -0.042 | [5] 0.011 | rosiglitazone 0.036 | [6] -0.022 | [7] -0.022

DNAJC3 (UniProt Q13217)
inactive: [1] -0.011 | volasertib 0 | [2] 0.08 | epoxomicin -0.021 | [3] 0.021 | [4] 0.029 | [5] -0.052 | rosiglitazone -0.006 | [6] 0.081 | [7] 0.091

DR1 (UniProt Q01658)
inactive: [1] 0.017 | volasertib -0.023 | [2] -0.02 | epoxomicin 0.004 | [3] 0.043 | [4] -0.001 | [5] 0.006 | rosiglitazone 0.061 | [6] 0.003 | [7] -0.036

DTD1 (UniProt Q8TEA8)
inactive: [1] 0.034 | volasertib 0.024 | [2] -0.018 | epoxomicin 0.003 | [3] 0.006 | [4] 0.023 | [5] -0.011 | rosiglitazone -0.014 | [6] 0.033 | [7] 0.215

DOCK7 (UniProt Q96N67)
inactive: [1] -0.086 | volasertib -0.005 | [2] 0.071 | epoxomicin -0.032 | [3] 0.009 | [4] 0.01 | [5] 0.034 | rosiglitazone 0.079 | [6] -0.02 | [7] -0.073

DNAJC16 (UniProt Q9Y2G8)
inactive: [1] 0.117 | volasertib 0.032 | [2] -0.024 | epoxomicin 0.202 | [3] -0.014 | [4] 0.029 | [5] 0.015 | rosiglitazone -0.054 | [6] -0.058 | [7] 0.044

DSG2 (UniProt Q14126)
inactive: [1] 0.003 | volasertib -0.028 | [2] 0.003 | epoxomicin 0.022 | [3] 0.032 | [4] -0.045 | [5] -0.008 | rosiglitazone 0.014 | [6] -0.039 | [7] 0.018

Reprinted at random: two entries already listed.
DSG2 (UniProt Q14126)
inactive: [1] 0.003 | volasertib -0.028 | [2] 0.003 | epoxomicin 0.022 | [3] 0.032 | [4] -0.045 | [5] -0.008 | rosiglitazone 0.014 | [6] -0.039 | [7] 0.018

DNAJC9 (UniProt Q8WXX5)
inactive: [1] -0.069 | volasertib -0.17 | [2] 0.055 | epoxomicin 0.035 | [3] -0.005 | [4] 0.043 | [5] 0.01 | rosiglitazone 0.013 | [6] -0.053 | [7] -0.065

More records follow:

DPH7 (UniProt Q9BTV6)
inactive: [1] 0.107 | volasertib 0.004 | [2] 0.02 | epoxomicin -0.047 | [3] -0.017 | [4] 0.007 | [5] 0.008 | rosiglitazone 0.005 | [6] -0.15 | [7] -0.04

DNPH1 (UniProt O43598)
inactive: [1] -0.031 | volasertib 0.053 | [2] -0.051 | epoxomicin 0.013 | [3] 0.013 | [4] -0.02 | [5] -0.011 | rosiglitazone -0.019 | [6] -0.05 | [7] 0.009

DPP7 (UniProt Q9UHL4)
inactive: [1] -0.037 | volasertib -0.019 | [2] -0.004 | epoxomicin -0.043 | [3] -0.017 | [4] 0.009 | [5] -0.01 | rosiglitazone 0.009 | [6] -0.006 | [7] -0.139
